No constants are given. Whether binding was seen depends on the method and setting. Some entries that bind do so weakly or less than the wild type.
B1: GL2 START-STAD fragment (253-747), two-hybrid bait and prey in pGBKT7/pGADT7 (domain or fragment, UniProt P46607 253-747)
chain: EKSRIAEISNRATLELQKMATSGEPMWLRSVETGREILNYDEYLKEFPQAQASSFPGRKTIEASRDAGIVFMDAHKLAQSFMDVGQWKETFACLISKAATVDVIRQGEGPSRIDGAIQLMFGEMQLLTPVVPTREVYFVRSCRQLSPEKWAIVDVSVSVEDSNTEKEASLLKCRKLPSGCIIEDTSNGHSKVTWVEHLDVSASTVQPLFRSLVNTGLAFGARHWVATLQLHCERLVFFMATNVPTKDSLGVTTLAGRKSVLKMAQRMTQSFYRAIAASSYHQWTKITTKTGQDMRVSSRKNLHDPGEPTGVIVCASSSLWLPVSPALLFDFFRDEARRHEWDALSNGAHVQSIANLSKGQDRGNSVAIQTVKSREKSIWVLQDSSTNSYESVVVYAPVDINTTQLVLAGHDPSNIQILPSGFSIIPDGVESRPLVITSTQDDRNSQGGSLLTLALQTLINPSPAAKLNMESVESVTNLVSVTLHNIKRSLQIEDC
B2: GL2 START domain alone, two-hybrid bait and prey in pGBKT7/pGADT7 (domain or fragment, UniProt P46607 250-489)
chain: FALEKSRIAEISNRATLELQKMATSGEPMWLRSVETGREILNYDEYLKEFPQAQASSFPGRKTIEASRDAGIVFMDAHKLAQSFMDVGQWKETFACLISKAATVDVIRQGEGPSRIDGAIQLMFGEMQLLTPVVPTREVYFVRSCRQLSPEKWAIVDVSVSVEDSNTEKEASLLKCRKLPSGCIIEDTSNGHSKVTWVEHLDVSASTVQPLFRSLVNTGLAFGARHWVATLQLHCERLVF

How the values were obtained:
[1] = target: GL2 START-STAD fragment (253-747), two-hybrid bait and prey in pGBKT7/pGADT7 (Arabidopsis thaliana) (UniProt P46607); assay: two-hybrid
[2] = target: GL2 START domain alone, two-hybrid bait and prey in pGBKT7/pGADT7 (Arabidopsis thaliana) (UniProt P46607); assay: two-hybrid

Binder	binding [1]	binding [2]
B1	binds	
B2		no binding
